# Source: the supplement of paper PMC10849652
# By UniProt entry, the sequences of proteins in these tests, tags left out. Where a name states a change or a piece, a line headed by the entry shows the natural chain unless it says otherwise.
# UniProt Q17RY0: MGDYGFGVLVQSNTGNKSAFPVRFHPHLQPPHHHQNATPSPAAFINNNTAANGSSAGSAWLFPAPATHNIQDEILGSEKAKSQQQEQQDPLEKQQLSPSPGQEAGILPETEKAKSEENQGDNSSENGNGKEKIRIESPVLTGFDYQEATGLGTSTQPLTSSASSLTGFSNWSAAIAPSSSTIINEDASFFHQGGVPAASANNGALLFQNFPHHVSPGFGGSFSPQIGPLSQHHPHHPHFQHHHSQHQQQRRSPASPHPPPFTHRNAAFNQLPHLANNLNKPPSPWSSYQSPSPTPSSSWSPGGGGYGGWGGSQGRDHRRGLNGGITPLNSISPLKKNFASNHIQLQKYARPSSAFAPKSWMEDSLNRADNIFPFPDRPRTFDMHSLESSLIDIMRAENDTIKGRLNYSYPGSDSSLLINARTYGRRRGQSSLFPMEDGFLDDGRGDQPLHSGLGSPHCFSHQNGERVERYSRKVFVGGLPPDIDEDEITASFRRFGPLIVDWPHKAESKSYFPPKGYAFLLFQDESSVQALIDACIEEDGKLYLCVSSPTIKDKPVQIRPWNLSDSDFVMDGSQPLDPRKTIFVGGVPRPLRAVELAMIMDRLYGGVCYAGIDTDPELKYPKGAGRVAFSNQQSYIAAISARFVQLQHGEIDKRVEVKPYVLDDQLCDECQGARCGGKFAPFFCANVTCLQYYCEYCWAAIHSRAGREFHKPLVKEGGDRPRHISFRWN
# UniProt Q9UP83: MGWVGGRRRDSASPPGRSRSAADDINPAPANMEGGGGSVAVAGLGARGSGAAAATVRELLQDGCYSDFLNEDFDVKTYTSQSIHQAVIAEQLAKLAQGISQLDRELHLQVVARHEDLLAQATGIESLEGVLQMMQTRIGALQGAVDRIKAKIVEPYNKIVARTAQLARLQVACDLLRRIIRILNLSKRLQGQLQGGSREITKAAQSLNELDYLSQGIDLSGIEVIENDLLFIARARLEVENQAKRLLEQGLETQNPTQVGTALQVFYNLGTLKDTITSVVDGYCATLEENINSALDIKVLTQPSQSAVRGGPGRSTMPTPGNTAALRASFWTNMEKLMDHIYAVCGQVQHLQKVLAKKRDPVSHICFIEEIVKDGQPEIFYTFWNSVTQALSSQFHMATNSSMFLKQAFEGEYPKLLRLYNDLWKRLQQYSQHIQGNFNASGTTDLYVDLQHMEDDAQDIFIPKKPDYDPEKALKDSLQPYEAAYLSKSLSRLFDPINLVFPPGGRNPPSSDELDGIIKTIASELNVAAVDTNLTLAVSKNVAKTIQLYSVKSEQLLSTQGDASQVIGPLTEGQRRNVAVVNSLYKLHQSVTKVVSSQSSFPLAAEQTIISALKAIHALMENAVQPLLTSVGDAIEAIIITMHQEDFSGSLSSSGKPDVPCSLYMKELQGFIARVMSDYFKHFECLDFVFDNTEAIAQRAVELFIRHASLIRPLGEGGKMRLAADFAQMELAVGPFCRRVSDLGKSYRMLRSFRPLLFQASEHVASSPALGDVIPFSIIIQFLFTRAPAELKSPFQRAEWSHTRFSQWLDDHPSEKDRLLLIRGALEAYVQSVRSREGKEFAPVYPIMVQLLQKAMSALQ
# UniProt P29373: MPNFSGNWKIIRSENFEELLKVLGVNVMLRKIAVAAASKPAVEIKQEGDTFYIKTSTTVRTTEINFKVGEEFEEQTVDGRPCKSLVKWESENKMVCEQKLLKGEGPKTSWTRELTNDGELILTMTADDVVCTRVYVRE
# UniProt P78560: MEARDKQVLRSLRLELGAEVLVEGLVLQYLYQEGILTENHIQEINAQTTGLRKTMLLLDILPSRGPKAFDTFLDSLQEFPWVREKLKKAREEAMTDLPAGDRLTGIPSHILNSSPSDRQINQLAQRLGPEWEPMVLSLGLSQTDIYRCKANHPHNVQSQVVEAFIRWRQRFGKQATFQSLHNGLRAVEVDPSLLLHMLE
# UniProt O75208: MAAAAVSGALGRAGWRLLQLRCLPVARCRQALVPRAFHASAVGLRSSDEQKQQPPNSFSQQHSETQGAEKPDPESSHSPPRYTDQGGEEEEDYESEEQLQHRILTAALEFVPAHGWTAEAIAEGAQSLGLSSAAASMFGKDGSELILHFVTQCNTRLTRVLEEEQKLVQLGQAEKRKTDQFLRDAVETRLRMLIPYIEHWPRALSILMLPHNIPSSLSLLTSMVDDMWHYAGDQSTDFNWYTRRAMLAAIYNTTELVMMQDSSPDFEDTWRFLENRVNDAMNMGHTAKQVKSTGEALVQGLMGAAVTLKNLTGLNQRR
# UniProt Q9H9Q2: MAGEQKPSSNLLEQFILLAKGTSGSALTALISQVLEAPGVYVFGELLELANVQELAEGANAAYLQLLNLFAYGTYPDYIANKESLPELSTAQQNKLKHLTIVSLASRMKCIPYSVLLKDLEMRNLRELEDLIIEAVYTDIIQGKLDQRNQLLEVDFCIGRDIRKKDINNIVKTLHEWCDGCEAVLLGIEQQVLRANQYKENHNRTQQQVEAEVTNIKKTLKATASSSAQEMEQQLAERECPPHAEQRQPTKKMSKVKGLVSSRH
# UniProt P57737: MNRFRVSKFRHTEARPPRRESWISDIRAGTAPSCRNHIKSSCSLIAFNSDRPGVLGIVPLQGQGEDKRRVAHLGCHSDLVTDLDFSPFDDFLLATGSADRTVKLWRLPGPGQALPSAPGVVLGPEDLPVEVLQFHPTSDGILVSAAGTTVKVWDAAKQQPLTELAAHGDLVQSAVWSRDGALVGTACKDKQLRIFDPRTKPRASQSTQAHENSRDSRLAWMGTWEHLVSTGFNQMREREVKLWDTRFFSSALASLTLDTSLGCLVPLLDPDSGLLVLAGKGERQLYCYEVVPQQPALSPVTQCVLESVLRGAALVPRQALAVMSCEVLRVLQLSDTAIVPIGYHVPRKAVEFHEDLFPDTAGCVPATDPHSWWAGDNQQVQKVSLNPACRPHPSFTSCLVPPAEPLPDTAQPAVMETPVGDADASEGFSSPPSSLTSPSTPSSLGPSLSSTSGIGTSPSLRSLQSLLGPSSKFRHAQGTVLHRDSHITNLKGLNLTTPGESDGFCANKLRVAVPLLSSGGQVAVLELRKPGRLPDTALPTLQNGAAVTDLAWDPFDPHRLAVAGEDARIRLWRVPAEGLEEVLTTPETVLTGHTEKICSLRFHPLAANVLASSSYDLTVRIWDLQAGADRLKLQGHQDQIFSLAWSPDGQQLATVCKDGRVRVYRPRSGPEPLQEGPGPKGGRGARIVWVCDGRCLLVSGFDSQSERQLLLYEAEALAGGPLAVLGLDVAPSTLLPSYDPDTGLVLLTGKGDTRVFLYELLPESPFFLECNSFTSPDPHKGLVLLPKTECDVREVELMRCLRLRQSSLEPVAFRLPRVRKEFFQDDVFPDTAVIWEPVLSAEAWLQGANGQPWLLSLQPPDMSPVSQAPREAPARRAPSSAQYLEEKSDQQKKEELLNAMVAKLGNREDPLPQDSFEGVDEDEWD
# UniProt Q14746: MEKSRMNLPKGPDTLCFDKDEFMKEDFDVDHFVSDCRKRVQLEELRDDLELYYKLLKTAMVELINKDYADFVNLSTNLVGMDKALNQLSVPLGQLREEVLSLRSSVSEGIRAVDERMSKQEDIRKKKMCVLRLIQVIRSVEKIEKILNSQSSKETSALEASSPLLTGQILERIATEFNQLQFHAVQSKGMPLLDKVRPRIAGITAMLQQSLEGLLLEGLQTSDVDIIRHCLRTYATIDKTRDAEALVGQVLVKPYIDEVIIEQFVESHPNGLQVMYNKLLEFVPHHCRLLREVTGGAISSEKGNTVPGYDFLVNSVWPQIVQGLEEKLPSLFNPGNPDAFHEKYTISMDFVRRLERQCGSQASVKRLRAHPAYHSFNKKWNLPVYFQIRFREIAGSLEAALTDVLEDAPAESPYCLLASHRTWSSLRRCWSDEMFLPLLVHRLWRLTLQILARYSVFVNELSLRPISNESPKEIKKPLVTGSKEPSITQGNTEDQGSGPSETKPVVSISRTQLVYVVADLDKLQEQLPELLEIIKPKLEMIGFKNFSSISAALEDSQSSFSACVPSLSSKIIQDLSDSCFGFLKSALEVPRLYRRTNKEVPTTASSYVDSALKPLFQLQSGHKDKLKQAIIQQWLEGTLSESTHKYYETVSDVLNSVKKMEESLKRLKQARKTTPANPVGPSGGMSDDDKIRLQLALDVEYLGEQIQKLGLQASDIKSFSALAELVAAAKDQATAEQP
# UniProt A5YKK6, whole entry, looked up: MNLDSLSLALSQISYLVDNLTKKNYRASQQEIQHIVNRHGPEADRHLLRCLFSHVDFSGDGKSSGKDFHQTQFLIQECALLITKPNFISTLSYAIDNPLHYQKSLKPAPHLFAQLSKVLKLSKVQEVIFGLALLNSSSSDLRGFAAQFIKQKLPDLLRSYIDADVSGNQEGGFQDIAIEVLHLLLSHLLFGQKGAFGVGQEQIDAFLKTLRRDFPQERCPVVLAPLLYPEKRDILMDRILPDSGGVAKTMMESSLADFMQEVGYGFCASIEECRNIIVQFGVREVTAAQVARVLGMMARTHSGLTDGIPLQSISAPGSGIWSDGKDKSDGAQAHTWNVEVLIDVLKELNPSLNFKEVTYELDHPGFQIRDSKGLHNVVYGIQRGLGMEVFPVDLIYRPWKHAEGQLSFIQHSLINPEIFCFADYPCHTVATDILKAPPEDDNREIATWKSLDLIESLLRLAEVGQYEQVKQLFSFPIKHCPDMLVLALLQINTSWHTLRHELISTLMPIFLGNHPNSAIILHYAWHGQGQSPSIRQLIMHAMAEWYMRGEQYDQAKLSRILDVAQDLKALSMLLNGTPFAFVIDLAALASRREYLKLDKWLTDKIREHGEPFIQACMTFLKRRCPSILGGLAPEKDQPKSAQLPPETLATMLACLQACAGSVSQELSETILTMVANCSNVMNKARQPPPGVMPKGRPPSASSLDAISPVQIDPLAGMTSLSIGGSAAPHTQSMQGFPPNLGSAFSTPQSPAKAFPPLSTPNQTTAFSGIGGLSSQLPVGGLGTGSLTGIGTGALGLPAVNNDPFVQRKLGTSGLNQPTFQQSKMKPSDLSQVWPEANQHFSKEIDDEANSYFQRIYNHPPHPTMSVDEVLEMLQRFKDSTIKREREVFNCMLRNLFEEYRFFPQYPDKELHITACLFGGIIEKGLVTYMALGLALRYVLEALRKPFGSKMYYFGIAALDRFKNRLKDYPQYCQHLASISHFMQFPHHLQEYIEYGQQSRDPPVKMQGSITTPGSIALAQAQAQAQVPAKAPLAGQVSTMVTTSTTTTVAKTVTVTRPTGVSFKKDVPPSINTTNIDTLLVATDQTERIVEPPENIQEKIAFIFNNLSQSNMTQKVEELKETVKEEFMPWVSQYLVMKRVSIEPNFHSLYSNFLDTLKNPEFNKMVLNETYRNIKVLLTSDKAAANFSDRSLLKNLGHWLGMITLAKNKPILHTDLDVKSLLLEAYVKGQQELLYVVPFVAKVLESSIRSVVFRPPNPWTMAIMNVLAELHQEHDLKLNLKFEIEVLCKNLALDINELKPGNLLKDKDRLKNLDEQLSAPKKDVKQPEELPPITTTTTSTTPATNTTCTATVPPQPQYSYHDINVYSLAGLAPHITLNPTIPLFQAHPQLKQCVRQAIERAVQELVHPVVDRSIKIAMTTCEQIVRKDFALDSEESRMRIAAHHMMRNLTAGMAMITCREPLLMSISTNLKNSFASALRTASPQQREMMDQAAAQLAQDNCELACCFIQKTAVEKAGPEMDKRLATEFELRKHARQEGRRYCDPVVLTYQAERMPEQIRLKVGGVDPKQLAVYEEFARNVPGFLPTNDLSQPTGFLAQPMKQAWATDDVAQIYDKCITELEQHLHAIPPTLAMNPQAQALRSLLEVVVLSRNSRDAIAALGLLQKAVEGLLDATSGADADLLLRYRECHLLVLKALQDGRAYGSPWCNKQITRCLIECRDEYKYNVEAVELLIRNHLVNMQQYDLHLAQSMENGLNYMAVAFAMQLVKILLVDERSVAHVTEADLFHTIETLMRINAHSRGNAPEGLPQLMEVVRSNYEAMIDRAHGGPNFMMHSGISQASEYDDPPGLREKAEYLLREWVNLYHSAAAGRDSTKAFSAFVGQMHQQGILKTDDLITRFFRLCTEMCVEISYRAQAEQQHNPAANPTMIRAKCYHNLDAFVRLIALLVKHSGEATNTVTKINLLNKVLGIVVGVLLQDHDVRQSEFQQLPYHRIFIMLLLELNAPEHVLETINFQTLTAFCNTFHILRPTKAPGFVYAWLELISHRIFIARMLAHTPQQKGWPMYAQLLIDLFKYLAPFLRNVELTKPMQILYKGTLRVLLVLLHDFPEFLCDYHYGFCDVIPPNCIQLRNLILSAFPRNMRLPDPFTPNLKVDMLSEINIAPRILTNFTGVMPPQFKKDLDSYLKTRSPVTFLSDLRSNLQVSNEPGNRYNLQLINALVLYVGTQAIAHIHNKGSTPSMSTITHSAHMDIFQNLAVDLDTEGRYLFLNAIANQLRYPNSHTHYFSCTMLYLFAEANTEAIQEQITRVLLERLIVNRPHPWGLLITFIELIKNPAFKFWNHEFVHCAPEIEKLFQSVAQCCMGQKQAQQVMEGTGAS
# This is one part of the list.
# Columns and labels:
# Assay in all cases: log2 fold change, soluble protein after heating vs DMSO (PISA); higher = thermal stabilisation; K562 lysate, 10 uM; active = over 0.2 and 3.5 SD of the protein, either way, in both replicates (recomputed)
# vemurafenib = compound: CCCS(=O)(=O)Nc1ccc(F)c(C(=O)c2c[nH]c3ncc(-c4ccc(Cl)cc4)cc23)c1F [vemurafenib]
# Method in brief: (§1)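 Following dounce homogenisation of K562 pellets in PBS pH 7.4 with 1 mM MgCl2, crude extract at 1 mg/mL protein was incubated for 30 min with 10 μM compound. Aliquots were then heated for 3 min over 48°C-58°C and pooled, NP-40 was added to 0.5% at 4°C, and soluble protein was recovered as the supernatant at 21,000xg for 90 min. Channel-sum-equalised TMTpro 16plex LC-MS/MS quantified this protein. Each value, from duplicates, is a log-two fold change in thermal stability relative to solvent controls.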
# [1] = compound: CCCS(=O)(=O)Nc1ccc(F)c(C(=O)c2c[nH]c3ncc(Cl)cc23)c1F
# Method in brief: as §1
# barasertib = compound: CCN(CCCOc1ccc2c(Nc3cc(CC(=O)Nc4cccc(F)c4)[nH]n3)ncnc2c1)CCOP(=O)(O)O [barasertib]
# Method in brief: as §1
# [2] = compound: CC[C@@H]1C(=O)N(C)c2cnc(Nc3ccc(C(=O)NC4CCN(C)CC4)cc3OC)nc2N1C1CCCC1
# Method in brief: as §1
# volasertib = compound: CC[C@@H]1C(=O)N(C)c2cnc(Nc3ccc(C(=O)N[C@H]4CC[C@H](N5CCN(CC6CC6)CC5)CC4)cc3OC)nc2N1C(C)C [volasertib]
# Method in brief: as §1
# [3] = compound: CCn1c(C(=O)N(C2CC2)C2CC2)cc2c3c(ncn3C)c(Nc3cc(C)n(C)n3)nc21
# Method in brief: as §1
# [4] = compound: CCn1cc(-c2ccnc3[nH]c(-c4cccc(CN(C)C)c4)cc23)c(-c2ccc(NC(=O)N(C)C)cc2)n1
# Method in brief: as §1
# [5] = compound: CN1CCC(CNc2ccc3ncc(-c4cccc(OC(F)(F)F)c4)n3n2)CC1
# Method in brief: as §1
# saracatinib = compound: CN1CCN(CCOc2cc(OC3CCOCC3)c3c(Nc4c(Cl)ccc5c4OCO5)ncnc3c2)CC1 [saracatinib]
# Method in brief: as §1
# sotrastaurin = compound: CN1CCN(c2nc(C3=C(c4c[nH]c5ccccc45)C(=O)NC3=O)c3ccccc3n2)CC1 [sotrastaurin]
# Method in brief: as §1
Target,log2 fold change (vemurafenib),log2 fold change [1],log2 fold change (barasertib),log2 fold change [2],log2 fold change (volasertib),log2 fold change [3],log2 fold change [4],log2 fold change [5],log2 fold change (saracatinib),log2 fold change (sotrastaurin)
COMMD5 (UniProt Q9GZQ3),inactive: 0.02,inactive: -0.003,inactive: 0.154,inactive: -0.268,inactive: 0.011,inactive: 0.008,inactive: -0.133,inactive: 0.021,inactive: 0.027,inactive: 0.01
COPA isoform 2 (UniProt P53621),inactive: -0.008,inactive: 0.004,inactive: -0.004,inactive: 0.007,inactive: 0,inactive: 0.01,inactive: -0.002,inactive: 0.008,inactive: -0.025,inactive: 0
CPEB4 (UniProt Q17RY0),inactive: -0.01,inactive: 0.016,inactive: 0.002,inactive: 0.072,inactive: -0.037,inactive: 0.26,inactive: -0.068,inactive: -0.041,inactive: 0.078,
COX19 (UniProt Q49B96),inactive: 0.01,inactive: -0.011,inactive: 0.127,inactive: 0.035,inactive: 0.019,inactive: -0.037,inactive: 0.015,inactive: 0.011,inactive: 0.025,inactive: 0.02
CNOT4 isoform 9 (UniProt O95628),inactive: 0.027,inactive: 0.014,inactive: -0.195,inactive: 0.028,inactive: -0.03,inactive: 0.015,active: -1.23,inactive: 0.22,inactive: 0.1,inactive: 0.075
COPS7A (UniProt Q9UBW8),inactive: -0.002,inactive: -0.002,inactive: -0.013,inactive: -0.072,inactive: 0.014,inactive: -0.004,inactive: -0.019,inactive: 0,inactive: 0.012,inactive: -0.011
COMMD8 (UniProt Q9NX08),inactive: -0.143,inactive: -0.009,inactive: 0.103,inactive: 0.053,inactive: 0.086,inactive: 0.036,inactive: -0.065,inactive: -0.002,inactive: 0.049,inactive: -0.074
COA7 (UniProt Q96BR5),inactive: -0.019,inactive: 0.005,inactive: 0.056,inactive: 0.046,inactive: 0.029,inactive: 0.032,inactive: -0.048,inactive: 0.044,inactive: -0.04,inactive: -0.006
COPS4 (UniProt Q9BT78),inactive: -0.047,inactive: 0,inactive: 0.152,inactive: -0.006,inactive: 0.01,inactive: 0.024,inactive: 0.008,inactive: -0.029,inactive: -0.002,inactive: -0.018
CPS1 isoform 3 (UniProt P31327),inactive: 0.119,inactive: 0.072,inactive: -0.01,inactive: 0.073,inactive: 0.087,inactive: 0.048,inactive: -0.037,inactive: 0.012,inactive: 0.061,inactive: -0.022
COG5 isoform 2 (UniProt Q9UP83),inactive: 0.001,inactive: 0.06,inactive: -0.116,inactive: -0.056,inactive: -0.084,inactive: -0.007,inactive: -0.02,inactive: 0.01,inactive: 0.057,inactive: 0.08
CNNM3 (UniProt Q8NE01),inactive: -0.047,inactive: 0.001,inactive: 0.02,inactive: 0.01,inactive: -0.021,inactive: 0.01,inactive: -0.014,inactive: -0.018,inactive: -0.018,inactive: 0.011
CNPY3 (UniProt Q9BT09),inactive: -0.001,inactive: -0.006,inactive: -0.006,inactive: 0.04,inactive: 0.022,inactive: 0.025,inactive: 0.035,inactive: -0.061,inactive: -0.023,inactive: 0.032
CRABP2 (UniProt P29373),inactive: 0.128,inactive: 0.007,inactive: 0.528,inactive: -0.139,inactive: 0.026,inactive: -0.005,inactive: 0.089,inactive: -0.003,inactive: 0.092,inactive: 0.001
COLGALT2 (UniProt Q8IYK4),inactive: -0.038,inactive: 0.01,inactive: -0.039,inactive: -0.023,inactive: -0.011,inactive: 0.017,inactive: -0.015,inactive: 0.019,inactive: 0.019,inactive: 0.017
COG4 (UniProt Q9H9E3),inactive: 0.018,inactive: 0.047,inactive: 0.085,inactive: -0.048,inactive: -0.088,inactive: 0.024,inactive: 0.005,inactive: -0.125,inactive: 0.055,inactive: 0.05
CRADD (UniProt P78560),inactive: -0.02,inactive: 0.055,inactive: 0.112,inactive: -0.022,inactive: -0.023,inactive: -0.018,inactive: 0.012,inactive: -0.079,inactive: 0.03,inactive: 0.029
COPE (UniProt O14579),inactive: -0.071,inactive: 0.004,inactive: 0.156,inactive: -0.063,inactive: -0.017,inactive: -0.019,inactive: -0.23,inactive: 0.113,inactive: -0.01,inactive: 0.052
COLGALT1 (UniProt Q8NBJ5),inactive: -0.01,inactive: 0.013,inactive: 0.02,inactive: -0.025,inactive: 0.004,inactive: 0.003,inactive: -0.038,inactive: 0.043,inactive: -0.006,inactive: 0.028
CORO2A (UniProt Q92828),inactive: -0.019,inactive: 0.02,inactive: 0.029,inactive: 0.002,inactive: -0.022,inactive: 0,inactive: 0.018,inactive: -0.164,inactive: -0.015,inactive: 0.011
COQ9 (UniProt O75208),inactive: -0.023,inactive: 0.126,active: 0.275,inactive: 0,inactive: -0.012,inactive: 0.002,inactive: 0.015,inactive: -0.066,inactive: -0.001,inactive: -0.101
COPS7B isoform 3 (UniProt Q9H9Q2),inactive: 0.03,inactive: 0.011,inactive: -0.014,inactive: -0.004,inactive: 0.011,inactive: 0.033,inactive: 0.06,inactive: 0.029,inactive: -0.007,inactive: -0.068
CNOT6L (UniProt Q96LI5),inactive: 0.035,inactive: -0.007,inactive: 0.065,inactive: -0.006,inactive: 0.006,inactive: 0.078,active: -0.422,inactive: 0.107,inactive: 0.048,inactive: -0.019
CORO7 isoform 3 (UniProt P57737),inactive: 0.031,inactive: 0.013,inactive: 0.008,inactive: -0.042,inactive: -0.01,inactive: 0.016,inactive: 0.044,inactive: -0.175,inactive: 0.004,inactive: 0.008
CPED1 (UniProt A4D0V7),inactive: 0.036,inactive: 0.053,inactive: -0.013,inactive: 0.033,inactive: -0.001,inactive: 0.014,inactive: -0.026,inactive: 0.107,inactive: -0.081,inactive: -0.03
CNOT7 (UniProt Q9UIV1),inactive: -0.052,inactive: 0.021,inactive: -0.031,inactive: 0.004,inactive: -0.012,inactive: 0.043,inactive: -0.034,inactive: -0.007,inactive: 0.077,inactive: -0.032
COG2 (UniProt Q14746),inactive: 0.023,inactive: 0.012,inactive: 0.077,inactive: -0.052,inactive: -0.088,inactive: 0.106,inactive: 0.032,inactive: -0.093,inactive: 0.002,inactive: 0.037
COMT (UniProt P21964),inactive: -0.052,inactive: 0.012,inactive: 0.024,inactive: -0.101,inactive: -0.056,inactive: 0.039,inactive: 0.026,inactive: 0.005,inactive: 0.008,inactive: 0.036
CNOT6 (UniProt Q9ULM6),inactive: -0.029,inactive: -0.003,inactive: 0.088,inactive: 0.028,inactive: -0.11,inactive: 0.002,inactive: -0.03,inactive: 0.002,inactive: -0.001,inactive: 0.025
CNOT1 (UniProt A5YKK6),inactive: -0.007,inactive: 0.008,inactive: 0.029,inactive: -0.033,inactive: -0.03,inactive: 0.006,inactive: -0.047,inactive: 0.037,inactive: 0.003,inactive: 0.016

# Single records (already shown). Order of values: log2 fold change (vemurafenib) | log2 fold change [1] | log2 fold change (barasertib) | log2 fold change [2] | log2 fold change (volasertib) | log2 fold change [3] | log2 fold change [4] | log2 fold change [5] | log2 fold change (saracatinib) | log2 fold change (sotrastaurin)
# COPS7A (UniProt Q9UBW8) is listed as inactive: -0.002 | inactive: -0.002 | inactive: -0.013 | inactive: -0.072 | inactive: 0.014 | inactive: -0.004 | inactive: -0.019 | inactive: 0 | inactive: 0.012 | inactive: -0.011
# CNOT6L (UniProt Q96LI5) is listed as inactive: 0.035 | inactive: -0.007 | inactive: 0.065 | inactive: -0.006 | inactive: 0.006 | inactive: 0.078 | active: -0.422 | inactive: 0.107 | inactive: 0.048 | inactive: -0.019
